From patent US20260308278A1, “ANTIBODY THAT BINDS TO C3bBb” (Hoffmann-La Roche Inc., priority 2023, published 2026) come the findings set out here.

The data set deals with human C3bBb complex. Nature of the data set: Stability (decay) of C3bBb complexes with different Bb subunits by Bio Layer Interferometry. Format: binding. (In BLI a coated tip is dipped into the sample, and binding shifts an interference pattern.)

As to “FB (D279G): FB with a D279G mutation is indicated in SEQ ID NO: 492”, the “prevalence of main species” value (Mg2+, double exponential fit) came out at 97% and the “prevalence of main species” value (Ni2+, single exponential fit) is recorded as 100%.

Take “wt FB: Unmutated FB is indicated in SEQ ID NO: 491”: the “prevalence of main species” value turned out to be 93% (Mg2+, double exponential fit) and 100% (Ni2+, single exponential fit).
